For this assay, the target named is T1, C-terminal Pol2 (C-Pol2), the Pol2 chain of Pol epsilon deltacat (yeast (strains based on W303)) (UniProt P21951).
T1 sequence: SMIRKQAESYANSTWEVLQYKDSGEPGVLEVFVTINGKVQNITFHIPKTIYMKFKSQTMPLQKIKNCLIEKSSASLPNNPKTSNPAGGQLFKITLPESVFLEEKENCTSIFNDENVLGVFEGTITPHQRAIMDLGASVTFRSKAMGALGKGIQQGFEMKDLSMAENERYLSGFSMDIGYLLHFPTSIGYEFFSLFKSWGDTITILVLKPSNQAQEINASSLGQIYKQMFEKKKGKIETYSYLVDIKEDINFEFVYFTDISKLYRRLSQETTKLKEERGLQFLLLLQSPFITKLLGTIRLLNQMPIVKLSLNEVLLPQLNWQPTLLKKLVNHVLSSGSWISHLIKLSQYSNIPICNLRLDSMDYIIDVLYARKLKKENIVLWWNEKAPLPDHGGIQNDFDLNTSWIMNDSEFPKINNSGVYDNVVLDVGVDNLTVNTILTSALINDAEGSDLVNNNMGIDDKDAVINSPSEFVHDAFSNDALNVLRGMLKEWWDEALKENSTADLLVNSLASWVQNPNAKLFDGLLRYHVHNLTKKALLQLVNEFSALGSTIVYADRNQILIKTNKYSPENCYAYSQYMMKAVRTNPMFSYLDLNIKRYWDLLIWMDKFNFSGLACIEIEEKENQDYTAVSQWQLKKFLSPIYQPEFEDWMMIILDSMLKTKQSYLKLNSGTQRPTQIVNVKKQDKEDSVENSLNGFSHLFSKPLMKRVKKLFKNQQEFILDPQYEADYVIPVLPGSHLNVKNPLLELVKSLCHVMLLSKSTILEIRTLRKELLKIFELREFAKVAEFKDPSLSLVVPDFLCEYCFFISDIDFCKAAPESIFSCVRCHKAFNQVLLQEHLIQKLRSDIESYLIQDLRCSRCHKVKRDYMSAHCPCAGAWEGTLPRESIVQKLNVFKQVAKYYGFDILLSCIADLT
Nature of the assay: cryo-EM structure; purified Pol epsilon deltacat (C-Pol2, Dpb2, Dpb3, Dpb4) crosslinked with 0.01% glutaraldehyde on ice; Volta phase plate, Falcon III; 4.45 Å; both purified.

The results in this text go back to paper PMC6265327.

Results are given in words; binding and its absence hold for the method and conditions named. Some binding calls cover weakened binding; strength is not graded here. Where a sequence is shown, tags or fusion partners need not be part of it.

B1: Dpb2, subunit of the CBP-tagged Pol epsilon complexes (deltacat and exo-) (protein, UniProt P24482 1-689)
chain: MFGSGNVLPVKIQPPLLRPLAYRVLSRKYGLSIKSDGLSALAEFVGTNIGANWRQGPATIKFLEQFAAVWKQQERGLFIDQSGVKEVIQEMKEREKVEWSHEHPIQHEENILGRTDDDENNSDDEMPIAADSSLQNVSLSSPMRQPTERDEYKQPFKPESSKALDWRDYFKVINASQQQRFSYNPHKMQFIFVPNKKQNGLGGIAGFLPDIEDKVQMFLTRYYLTNDRVMRNENFQNSDMFNPLSSMVSLQNELSNTNRQQQSSSMSITPIKNLLGRDAQNFLLLGLLNKNFKGNWSLEDPSGSVEIDISQTIPTQGHYYVPGCMVLVEGIYYSVGNKFHVTSMTLPPGERREITLETIGNLDLLGIHGISNNNFIARLDKDLKIRLHLLEKELTDHKFVILGANLFLDDLKIMTALSKILQKLNDDPPTLLIWQGSFTSVPVFASMSSRNISSSTQFKNNFDALATLLSRFDNLTENTTMIFIPGPNDLWGSMVSLGASGTLPQDPIPSAFTKKINKVCKNVVWSSNPTRIAYLSQEIVIFRDDLSGRFKRHRLEFPFNESEDVYTENDNMMSKDTDIVPIDELVKEPDQLPQKVQETRKLVKTILDQGHLSPFLDSLRPISWDLDHTLTLCPIPSTMVLCDTTSAQFDLTYNGCKVINPGSFIHNRRARYMEYVPSSKKTIQEEIYI
For the molecule B1, the binding entry is reported as “binds”.
